Reference: patent US20210000830A1, “CANCER TREATMENT METHOD USING Trk INHIBITOR AND KINASE INHIBITOR IN COMBINATION” (ONO PHARMACEUTICAL CO., LTD., priority 2017, published 2021)
Some of these results come from one statement about several compounds together.

Legend:
[1] = system: TPM3-NTRK1-positive human colon cancer cell lines KM12; assay: Growth inhibition test in TPM3-NTRK1 positive KM12 cell lines (CellTiter-Glo, combination index); type: cell-based; conditions: named kinase inhibitor used in combination with compound A, KM12 cells, 72 hours, CI<1 synergistic
Protocol: Pharmacological Experiment Example 3: Growth Inhibition Test in TPM3-NTRK1 Positive KM12 Cell Lines
Using KM12 as TPM3-NTRK1-positive human colon cancer cell lines, an effect when 1-{2-[4-(2-amino-5-chloro-3-pyridinyl)phenoxy]-5-pyrimidinyl}-3-[2-(methylsulfonyl)-5-(trifluoromethyl)phenyl]urea (hereinafter sometimes referred to as a compound A) and trametinib, selumetinib, palbociclib, afatinib or erlotinib were combined was evaluated. Cells were subcultured using a DMEM containing a 10 vol % inactivated fetal bovine serum (FBS) and 1 vol % penicillin-streptomycin liquid as a culture medium before they underwent the experiment.
One day before the compound was treated, cells were floated using 0.25% Trypsin-EDTA, and the cells were collected into a centrifuge tube from a culture flask. At room temperature, 180 g of the cells were centrifuged for 3 minutes, and the cell sediment was then suspended in a DMEM culture medium. A part of the cell suspension was collected, the number of cells was counted, and the cells were then suspended in the DMEM culture medium at a cell density of 3.75×10^4 cells/mL to prepare a cell suspension. The cell suspension was inoculated at 80 μL/well in a 96-well tissue culture plate (Asahi Glass Co., Ltd.), and left for 24 hours under 37° C., 5% CO2, and 95% air conditions. […]
After the stationary culture was completed, a luminescent signal (relative luminescent unit, RLU) of each well was measured by a microplate reader using a CellTiter-Glo Luminescent Cell Viability Assay kit (Promega, G7571). An average value of RLUs of 3 wells of a medium group (a group treated with a medium solution having a compound concentration of zero (0)) was calculated, and a growth inhibition rate in each well was calculated by the following mathematical formula. […]
In order to analyze the combined effect, using a fluorescence intensity, the effective dose (ED)50, ED75, ED90 and ED95 were calculated, and a combination index (CI) described in Advances in enzyme regulation, vol. 22, 1984, pp. 27-55 was calculated for analysis. […]

[2] = system: ETV6-NTRK3 positive human leukemia cell lines IMS-M2; assay: Growth inhibition experiment in ETV6-NTRK3 positive IMS-M2 cell lines (combination index); type: cell-based; conditions: named kinase inhibitor used in combination with compound A, IMS-M2 cells, 72 hours, CI<1 synergistic
Protocol: Cells were subcultured using an RPMI culture medium containing a 10 vol % FBS and 1 vol % penicillin-streptomycin liquid before they underwent the experiment.
On the day when the compound was treated, cells were collected from a culture flask into a centrifuge tube. At room temperature, 300 g of cells were centrifuged for 3 minutes, and the cell sediment was then suspended in the RPMI culture medium.
The diluted solution of each compound and DMSO were diluted 100-fold in a culture medium to prepare a 10-fold concentration of the treatment solution of each compound and the medium solution.

CC(=O)c1c(C)c2cnc(Nc3ccc(N4CCNCC4)cn3)nc2n(C2CCCC2)c1=O [Palbociclib, palbociclib]
CI (median value) ([1]; listed as palbociclib): less than 1
CI (median value) ([2]; listed as palbociclib): less than 1

Cn1cnc2c(F)c(Nc3ccc(Br)cc3Cl)c(C(=O)NOCCO)cc21 [Selumetinib, selumetinib]
CI (median value) ([1]; listed as selumetinib): less than 1
CI (median value) ([2]; listed as selumetinib): less than 1

CC(=O)Nc1cccc(-n2c(=O)n(C3CC3)c(=O)c3c(Nc4ccc(I)cc4F)n(C)c(=O)c(C)c32)c1 [Trametinib, trametinib]
CI (median value) ([1]; listed as trametinib): less than 1
CI (median value) ([2]; listed as trametinib): less than 1
